PubChem BioAssay AID743121, NCATS, 2013
Aim: 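Genes whose silencing strengthens cell killing by camptothecin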 (primary screen). Cell system: MDA-MB-231 cells, a human breast cancer line. Reagents: single siRNA against human genes, 20 nM siRNA (0.8 pmol per well). Duration: 120 h (drug added 48 h after transfection, read 72 h later). Treatment: camptothecin 20 nM (about EC30) for 72 h; vehicle 0.1% DMSO in parallel plates. Detection: 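Cell viability by ATP luminescence (CellTiter-Glo) as % of non-targeting siRNA wells, and the log2 ratio of viability without drug over viability with camptothecin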. Direction: log2 vehicle/camptothecin viability: higher = stronger sensitisation to camptothecin. Active means: 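Active genes have an RSA gene-level p-value below 0.001, computed from the ratios of their separate siRNAs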.
Shown is an unselected part of about 26,000 reagents. In the full data, 167 (0.63%) got an active call. 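Calls are per gene from RSA p-values that are not deposited; an individual active-marked siRNA can sensitise only weakly.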 The numbers tell different reagents against one gene apart. Further read-outs or replicates are left out here.

no.	gene knocked down	reagent no.	log2 vehicle/camptothecin viability	activity call
1	BIRC7 (baculoviral IAP repeat containing 7)	1	0.183	inactive
2	BIRC7 (baculoviral IAP repeat containing 7)	2	-0.799	inactive
3	BIRC7 (baculoviral IAP repeat containing 7)	3	-0.388	inactive
4	BIRC7 (baculoviral IAP repeat containing 7)	4	-0.409	inactive
5	HSD17B14 (hydroxysteroid 17-beta dehydrogenase 14)	1	-0.208	inactive
6	HSD17B14 (hydroxysteroid 17-beta dehydrogenase 14)	2	-0.0549	inactive
7	HSD17B14 (hydroxysteroid 17-beta dehydrogenase 14)	3	0.0163	inactive
8	HSD17B14 (hydroxysteroid 17-beta dehydrogenase 14)	4	0.163	inactive
9	LINC00312 (long independently transcribed non-coding RNA 312)	1	-0.221	inactive
10	LINC00312 (long independently transcribed non-coding RNA 312)	2	-0.163	inactive
11	LINC00312 (long independently transcribed non-coding RNA 312)	3	-0.345	inactive
12	PCDH18 (protocadherin 18)	1	-0.105	inactive
13	PCDH18 (protocadherin 18)	2	-0.402	inactive
14	PCDH18 (protocadherin 18)	3	-0.301	inactive
15	P2RY8 (P2Y receptor family member 8)	1	-0.319	inactive
16	P2RY8 (P2Y receptor family member 8)	2	-0.274	inactive
17	P2RY8 (P2Y receptor family member 8)	3	-0.438	inactive
18	P2RY8 (P2Y receptor family member 8)	4	0.225	inactive
19	STAB2 (stabilin 2)	1	-0.0677	inactive
20	STAB2 (stabilin 2)	2	0.186	inactive
21	STAB2 (stabilin 2)	3	0.593	inactive
22	STAB2 (stabilin 2)	4	-0.457	inactive
23	TM7SF3 (transmembrane 7 superfamily member 3)	1	-0.287	inactive
24	TM7SF3 (transmembrane 7 superfamily member 3)	2	-0.681	inactive
25	TM7SF3 (transmembrane 7 superfamily member 3)	3	0.224	inactive
26	TM7SF3 (transmembrane 7 superfamily member 3)	4	0.0521	inactive
27	SIGLEC12 (sialic acid binding Ig like lectin 12)	1	-0.0672	inactive
28	SIGLEC12 (sialic acid binding Ig like lectin 12)	2	0.0856	inactive
29	SIGLEC12 (sialic acid binding Ig like lectin 12)	3	-0.0138	inactive
30	SIGLEC12 (sialic acid binding Ig like lectin 12)	4	-0.19	inactive

Reformatted: entries from further up
gene knocked down,reagent no.,log2 vehicle/camptothecin viability,activity call
HSD17B14 (hydroxysteroid 17-beta dehydrogenase 14),1,-0.208,inactive
HSD17B14 (hydroxysteroid 17-beta dehydrogenase 14),2,-0.0549,inactive
HSD17B14 (hydroxysteroid 17-beta dehydrogenase 14),3,0.0163,inactive
